According to patent US20120213844A1:
These are yes or no findings as the source states them, for the method shown. Some binding calls cover weakened binding; strength is not graded here.

The chains behind the UniProt entries cited, without tags or fusion partners. Where a name states a change or a piece, a line headed by the entry shows the natural chain unless it says otherwise.
UniProt P01133: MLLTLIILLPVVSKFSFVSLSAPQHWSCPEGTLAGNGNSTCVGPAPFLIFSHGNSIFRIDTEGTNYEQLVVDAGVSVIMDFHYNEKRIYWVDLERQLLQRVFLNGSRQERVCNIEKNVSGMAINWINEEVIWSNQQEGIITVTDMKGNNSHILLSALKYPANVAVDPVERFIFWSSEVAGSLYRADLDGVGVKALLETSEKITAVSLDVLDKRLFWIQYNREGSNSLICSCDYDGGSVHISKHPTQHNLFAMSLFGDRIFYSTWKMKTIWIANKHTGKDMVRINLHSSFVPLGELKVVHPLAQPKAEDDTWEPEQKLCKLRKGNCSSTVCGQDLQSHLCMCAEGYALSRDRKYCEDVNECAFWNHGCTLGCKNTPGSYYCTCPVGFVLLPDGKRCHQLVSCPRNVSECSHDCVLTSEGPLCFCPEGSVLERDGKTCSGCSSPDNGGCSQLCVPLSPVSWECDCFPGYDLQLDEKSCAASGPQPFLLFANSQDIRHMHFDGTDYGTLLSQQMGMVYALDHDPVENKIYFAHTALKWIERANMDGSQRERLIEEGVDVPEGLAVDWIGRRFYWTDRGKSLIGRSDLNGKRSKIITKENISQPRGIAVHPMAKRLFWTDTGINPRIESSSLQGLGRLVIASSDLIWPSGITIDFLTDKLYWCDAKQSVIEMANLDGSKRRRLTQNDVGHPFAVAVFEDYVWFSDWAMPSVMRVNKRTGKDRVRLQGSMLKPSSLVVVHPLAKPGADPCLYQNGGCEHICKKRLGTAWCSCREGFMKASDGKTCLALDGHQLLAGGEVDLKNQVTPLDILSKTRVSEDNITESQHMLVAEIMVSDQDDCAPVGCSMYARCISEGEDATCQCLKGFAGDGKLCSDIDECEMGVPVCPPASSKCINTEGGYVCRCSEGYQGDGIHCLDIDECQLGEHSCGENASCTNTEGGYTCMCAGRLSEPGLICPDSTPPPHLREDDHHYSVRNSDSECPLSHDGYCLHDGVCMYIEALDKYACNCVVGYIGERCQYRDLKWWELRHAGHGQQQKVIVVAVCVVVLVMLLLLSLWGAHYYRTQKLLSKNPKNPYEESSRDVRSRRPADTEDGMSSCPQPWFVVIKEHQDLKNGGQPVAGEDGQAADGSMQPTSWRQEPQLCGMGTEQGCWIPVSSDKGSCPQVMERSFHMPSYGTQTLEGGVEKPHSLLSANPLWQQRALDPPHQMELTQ

Assays:
[1] = molecular target: sEGFR-MMB (dimeric sEGFR mimetibody) (human); assay: ELISA on immobilized sEGFR-MMB, linear concentration axis
[2] = molecular target: biotinylated strepII-tagged sEGFR (human) (UniProt P00533); assay: phage ELISA, biotinylated receptor on streptavidin (FIG. 6)
[3] = molecular target: biotinylated sEGFR-MMB (human); assay: as above
[4] = molecular target: biotinylated sEGFR-His6 (human) (UniProt P00533); assay: as above
[5] = molecular target: sEGFR-MMB (dimeric sEGFR mimetibody) (human); assay: phage ELISA on coated sEGFR-MMB; EGF 10 ug/ml as competitor in the second bar
[6] = molecular target: biotinylated strepII-tagged sEGFR (human) (UniProt P00533); assay: phage ELISA; biotinylated receptor captured on streptavidin-coated wells
[7] = molecular target: biotinylated sEGFR-MMB (human); assay: as above
[8] = molecular target: biotinylated sEGFR-His6 (human) (UniProt P00533); assay: as above
[9] = molecular target: sEGFR-MMB (dimeric sEGFR mimetibody) (human); assay: phage ELISA with or without EGF 10 ug/ml (FIG. 5)
[10] = molecular target: biotinylated sEGFR-His6 (human) (UniProt P00533); assay: phage ELISA, biotinylated sEGFR-His6 on streptavidin
[11] = molecular target: sEGFR-MMB (dimeric sEGFR mimetibody) (human); assay: phage ELISA on coated sEGFR-MMB
[12] = molecular target: sEGFR-MMB (dimeric sEGFR mimetibody) (human); assay: phage ELISA, coated sEGFR-MMB
[13] = molecular target: Human extracellular EGFR-His6 (sEGFR-His6) (human) (UniProt P00533); assay: phage ELISA, coated sEGFR-His6
[14] = molecular target: complex of EGF and sEGFR-MMB (human) (UniProt P01133); assay: phage ELISA, coated sEGFR-MMB with EGF added
[15] = molecular target: complex of EGF and sEGFR-MMB (human) (UniProt P01133); assay: phage ELISA, coated sEGFR-MMB with EGF
[16] = molecular target: biotinylated sEGFR-MMB (human); assay: phage ELISA, biotinylated sEGFR-MMB captured on streptavidin
[17] = molecular target: sEGFR-MMB (dimeric sEGFR mimetibody) (human); assay: phage ELISA on coated sEGFR-MMB, Control-MMB as control coat [panel A]
[18] = molecular target: sEGFR-MMB (dimeric sEGFR mimetibody) (human); assay: competitive phage ELISA on coated sEGFR-MMB; competitor cetuximab (10 ug/ml by paragraph 159) [panel E]
[19] = molecular target: sEGFR-MMB (dimeric sEGFR mimetibody) (human); assay: competitive phage ELISA on coated sEGFR-MMB; competitor TGF-alpha (10 ug/ml by paragraph 159) [panel D]
[20] = molecular target: biotinylated sEGFR-MMB (human); assay: phage ELISA; biotinylated receptor captured on streptavidin [panel C]
[21] = molecular target: biotinylated sEGFR-His6 (human) (UniProt P00533); assay: as above
[22] = molecular target: biotinylated sEGFR-His6 (human) (UniProt P00533); assay: phage ELISA, biotinylated sEGFR-His6 captured on streptavidin
[23] = molecular target: sEGFR-MMB (dimeric sEGFR mimetibody) (human); assay: competitive phage ELISA on coated sEGFR-MMB; competitor EGF (10 ug/ml by paragraph 159) [panel B]
[24] = molecular target: sEGFR-MMB (dimeric sEGFR mimetibody) (human); assay: phage ELISA, sEGFR-MMB passively coated
[25] = molecular target: sEGFR-MMB (dimeric sEGFR mimetibody) (human); assay: phage ELISA
[26] = molecular target: biotinylated sEGFR-His6 (human) (UniProt P00533); assay: phage ELISA

Measured: binding

B1: P190-MMB construct 4314 (Fc fusion)
chain: GGDPCTWEVWGRECLQGGGSCPPCPAPEAAGGPSVFLFPPKPKDTLMISRTPEVTCVVVDVSQEDPEVQFNWYVDGVEVHNAKTKPREEQFNSTYRVVSVLTVLHQDWLNGKEYKCKVSNKGLPSSIEKTISKAKGQPREPQVYTLPPSQEEMTKNQVSLTCLVKGFYPSDIAVEWESNGQPENNYKTTPPVLDSDGSFFLYSRLTVDKSRWQEGNVFSCSVMHEALHNHYTQKSLSLSLGK
binds: [1]

B2: phage clone P143 (SEQ ID NO: 6) (peptide, not shown: large carriers)
chain: AGVLCSNFYHPLCHSGG
binds: [2] | [3] | [4] | [5] | [6] | [7] | [8] | [9] | [10] | [11]

B3: phage clone P146 (SEQ ID NO: 8) (peptide, not shown: large carriers)
chain: AGTLCRSFFHPLCYAGG
binds: [2] | [3] | [4] | [5] | [6] | [7] | [8] | [9] | [10] | [11]

B4: phage clone P194 (SEQ ID NO: 59) (peptide, not shown: large carriers)
chain: AGSECFPLAPDWLSCILGG
binds: [12] | [13]

B5: phage clone P191 (SEQ ID NO: 56) (peptide, not shown: large carriers)
chain: AGHFYPTKTPGYGG
binds: [14]

B6: phage displaying P190 on pIX (SEQ ID NO: 55) (peptide, not shown: large carriers)
chain: GGGDPCTWEVWGRECLQGGGSGGSGG
binds: [14] | [15]

B7: phage clone P174 (SEQ ID NO: 51) (peptide, not shown: large carriers)
chain: GGGSGCLDALWQCVYGGGSGGSGG
binds: [16] | [17] | [18] | [19] | [20] | [21] | [22] | [23] | [24] | [25] | [26]

B8: phage clone P176 (SEQ ID NO: 48) (peptide, not shown: large carriers)
chain: GGGKTCVSTTFDLWFVCFAGGGSGGSGG
binds: [16] | [17] | [18] | [19] | [20] | [21] | [22] | [23] | [24] | [25] | [26]

B9: phage clone P189 (SEQ ID NO: 54) (peptide, not shown: large carriers)
chain: GGGMFCFRWYAGWSCVSGGGSGGSGG
binds: [12] | [13]

B10: phage clone P175 (SEQ ID NO: 13) (peptide, not shown: large carriers)
chain: GGGLPDDSLPELICKVRGGGGSGGSGG
binds: [16] | [17] | [18] | [19] | [20] | [23] | [24] | [25]

B11: phage clone P145 (SEQ ID NO: 7) (peptide, not shown: large carriers)
chain: AGVLCHRYYHPICYTGG
binds: [16] | [2] | [3] | [4] | [5] | [6] | [7] | [8] | [9] | [22] | [10] | [24] | [11]

B12: phage clone P173 (SEQ ID NO: 31) (peptide, not shown: large carriers)
chain: GGGTDCVIFGLETYCLRGGGSGGSGG
binds: [16] | [14] | [12] | [24]

B13: phage clone P192 (SEQ ID NO: 57) (peptide, not shown: large carriers)
chain: AGAASRALWAFNSDGG
binds: [14]

B14: phage clone P193 (SEQ ID NO: 58) (peptide, not shown: large carriers)
chain: AGSYYWGYTVDIRRGG
binds: [14] | [12]
